Laboratory results reported in patent EP4775595A1.
Results are given in words; binding and its absence hold for the method and conditions named. Some results given as binding are weak or reduced against the parent protein; the word gives no strength.

Target: hTSHR-ECD-avi-his (human TSHR extracellular region, 6 amino acid mutations) (human)
Experiment: phage library screening and affinity determination

- binding: binds
B1: CB16 (VHH)
VHH: EVQLVESGGGPVQAGGSLRLSCAGPGYTSSCMGWFRQAPGKERTGVAAIYIGGRGTDYADSVKGRFTISQDNAKNTLYLQMNSLKPEDTAMYYCWAGIEYDCYSGHWRDWAFSRERGFWGQGTQVTVSS
